Library screening results

Values are the deposited “Percent Effect”, in %.
The controls that fix the scale are not given in the record; negative values are as filed.
This is an unselected part of the compounds tested.
Two or more numbers in one place are separate tests of the same structure; such repeats can differ widely.

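Viability assay of Plasmodium falciparum sporozoites; the read-out is not stated. The concentration is filed as 10 mM, unlikely as a test dose, so the dose is not known. Direction is inferred from retests: higher values go with lower viability. Strong results were mostly tested again. Size under these conditions: about 34,000 compounds, about 280 of them at 50% or above in at least one test.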

SMILES,Percent Effect
O=C(O)C(F)(F)F.[H][C@@]12CN(C(C)=O)CCO[C@]1([H])CN(S(=O)(=O)c1cccnc1)C2,13.1%
CN(C(=O)CN1CCCC1=O)C1CCCN(C2Cc3ccccc3C2)C1 (centres undefined),-5.526%
CCc1nc(C)cn1C(=O)Nc1ccccc1,-5.646%
CCC(C)(NCC(=O)N(c1ccccc1)C(C)C)c1nc(C)cs1 (centres undefined),5.306%
OC1CCN([C@@H]2CCN(c3nc(-c4ccccc4)no3)C[C@H]2O)CC1,63.55% & 40.94%
CC(C)CN(C(=O)Nc1cccnc1)C1CC1,-22.06%
Cc1oc(C)c(C(=O)N2CCCN(Cc3cscn3)CC2)c1C,-14.34%
[H][C@@]12C[C@H](C(=O)NC(C)C)[C@@]([H])(CN(C(=O)NCc3ccccc3)C1)O2,-19.46%
CN(C)CC(=O)N1CCc2sc(C(=O)N3CCN(C)CC3)cc21,-1.519%
CCN(Cc1nonc1C)C(=O)c1cnccn1,12.84%
COCCc1noc(CN2CCOC(CN(C)C)C2)n1 (centres undefined),34.8% & 16.04% & 14.75%
Cn1c(CC2CCS(=O)(=O)C2)nnc1SCCOc1ccccc1F (centres undefined),-9.227%
Cc1ccc2oc(C(=O)N3CCCC(n4nc(C)cc4C)C3)cc2n1 (centres undefined),-0.3221%
COc1cccc(S(=O)(=O)NC(=O)CCC2CCCC2)c1,3.774%
COc1c(CNCc2cccc(C(=O)N(C)C)c2)c(C)nn1C,10.13%
CC(=O)N1CCN(Cc2ccc(OCc3nccn3C)cc2)CC1,0.1952%
Cc1ccc(NC2CCN(C(=O)c3cnc(C)s3)CC2)nn1,-4.167%
CCC[C@H]1CN(c2cncc(C(=O)N3CCCCC3)n2)C[C@@H]1N(C)C,-18.43%
Cc1nnc2n1CCN(C(=O)c1cc(C)n(-c3cccnc3)c1C)C2,-3.499% & -16.38% & -11.58%
O=C(NCc1cc[nH]n1)N1CCCC(N2CCCC2)C1 (centres undefined),5.214%
CN(C)c1ncnc2c1CCN(C(=O)c1cccnc1)CC2.O=C(O)C(F)(F)F,-29.28% & 10.27% & -25.39%
CC(C)OCCN1CCN(C(C)c2nc(C3CC3)no2)CC1 (centres undefined),-6.702%
O=C(Nc1ccccc1OCCc1ccccn1)N1CCOCC1,-3.044%
Cc1nc(C)n(C2CCCN(C(=O)c3cncnc3C)C2)n1 (centres undefined),16.85%
CCc1ccc(S(=O)(=O)Nc2c(C)cccc2C(=O)O)s1,2.2%
CN(CCNC(=O)NCc1ccncc1)C1CCCC1,2.88%
CS(=O)(=O)c1ccc(CNC(=O)NCC2CCOC2)cc1 (centres undefined),-11.82%
CN1CCCC1CNC(=O)CCCOCc1ccccc1 (centres undefined),-7.749%
COc1ccc(C(=O)NS(=O)(=O)c2cc(Cl)sc2Cl)cc1OC(F)F,-14.22%
Cn1cc(CC2CCN(C(=O)NCCc3cccc(O)c3)C2)cn1 (centres undefined),-15.22%
COc1c(CNCc2ccc3c(c2)OCCO3)c(C(C)C)nn1C,14.99%
COCCN1CCC2(CC1)CN(C(=O)c1cccs1)CCO2.O=C(O)C(F)(F)F,10.6%
O=C(CN1CCC(c2cc(=O)n3c(n2)CCCCC3)CC1)N1CCCC1,-0.7803%
CCc1nc(C)c([C@H]2CN(C)C[C@@H]2C(=O)Nc2ccc(OC)cc2)[nH]1,7.882%
Cc1ccc(C(=O)N2CCCN(Cc3cccs3)CC2)c(=O)[nH]1,13.9%
[H][C@@]12CCN(Cc3cccs3)C[C@]1([H])[C@H](c1nc(C)no1)CCO2,-11.77%
[H][C@@]12COC[C@]1([H])[C@@H](OCc1cccnc1)CN2C(=O)c1ccc(C#N)cc1,25.35%
Cn1cc(CN2CCn3cc(CNC(=O)CC4CC4)nc3C2)cn1.O=C(O)C(F)(F)F,0.5051%
Cn1cc(CNS(=O)(=O)c2cc(F)ccc2F)cn1,0.4353%
Cc1ccc(NC(=O)c2cc3c(=O)n(C)c(=O)n(C)c3nc2C)cc1Cl,-14.92%
Cc1ccc(CN2CCC3(CC2)C(=O)Nc2ccccc23)s1.O=C(O)C(F)(F)F,-6.743%
COc1ncccc1NC(=O)NC1CCCN(c2ncccn2)C1 (centres undefined),4.321%
CCc1nc(CN(C)C2CCN(CC(=O)N3CCOCC3)C2)no1 (centres undefined),8.322%
O=C(O)C(F)(F)F.O=C(O)C(F)(F)F.[H][C@@]12CN(Cc3ccc(F)cc3)C[C@]1([H])OCCN2Cc1c(C)noc1C,-11.01%
O=C(O)c1ccccc1-n1cnc(CN2CCc3ccccc3C2)c1,16.47%
[H][C@@]12COC[C@@H](C(=O)N3CCOCC3)[C@]1([H])CN(C1CCCCC1)C2,8.944%
Cc1cc(-c2cnn(CCNC(=O)c3cccnc3)c2C2CC2)on1.Cl,-14.81%
COCC(=O)N1CCCC1c1ccnc(Nc2cnccn2)n1 (centres undefined),-1.066%
Cc1cc(C(=O)N2CCC3(C2)CN(c2ccsc2)C(=O)CN3C)[nH]n1.O=C(O)C(F)(F)F (centres undefined),-5.113%
CCCn1cc(C(=O)N[C@H]2CC[C@H](n3cnnc3)CC2)c(C)n1,-3.421%
CNc1cc(C)nc(C2CCN(CCO)CC2)n1,2.747%
CN(C)C(=O)CN1CCCC2(CCN(c3ccsc3)C2=O)C1.O=C(O)C(F)(F)F (centres undefined),4.96%
COCCC(=O)N1CCC2(CCCN(Cc3cc(OC)ccc3F)C2)C1 (centres undefined),-7.439% & -1.074%
O=C(O)C(F)(F)F.O=C(O)C(F)(F)F.[H][C@@]12CCCO[C@]1([H])[C@H](N(C)Cc1cccnc1)CN2C(=O)CC1CC1,22.43%
Cc1noc(C)c1CN1CCc2c(CNc3nccs3)n[nH]c2C1.O=C(O)C(F)(F)F,24.96% & 19.51%
CCc1nc(CN2CCCC(NCc3nc4cccnc4[nH]3)C2)no1 (centres undefined),-11.11% & 0.5757% & -24.87%
Cn1c(=O)c2cc(C(=O)NCc3ccccn3)ccc2n(C)c1=O,-2.201%
[H][C@@]12COC[C@]1(COC)CN(Cc1cccnc1OC)C2,-15.79%
CCOCC1CN(Cc2cnn(C)c2)Cc2c1cnn2CC.O=C(O)C(F)(F)F (centres undefined),-14.11%

The first 5 entries again:

| SMILES | Percent Effect |
|---|---|
| `O=C(O)C(F)(F)F.[H][C@@]12CN(C(C)=O)CCO[C@]1([H])CN(S(=O)(=O)c1cccnc1)C2` | 13.1% |
| `CN(C(=O)CN1CCCC1=O)C1CCCN(C2Cc3ccccc3C2)C1` (centres undefined) | -5.526% |
| `CCc1nc(C)cn1C(=O)Nc1ccccc1` | -5.646% |
| `CCC(C)(NCC(=O)N(c1ccccc1)C(C)C)c1nc(C)cs1` (centres undefined) | 5.306% |
| `OC1CCN([C@@H]2CCN(c3nc(-c4ccccc4)no3)C[C@H]2O)CC1` | 63.55% & 40.94% |

Data taken from ChEMBL document CHEMBL3988442, “University of Dundee, Small-Polar-MMV Screening Library” (2021).